Assay results as given in article PMC7452315, “Alternative Splicing of a Receptor Intracellular Domain Yields Different Ectodomain Conformations, Enabling Isoform-Selective Functional Ligands” (iScience, 2020).
These are yes or no findings as the source states them, for the method shown. Binding seen in cells or lysates may run through a third protein. Some entries that bind do so weakly or less than the wild type.

Sequences of proteins named here, by UniProt entry; tags and fusion partners are left off. Residues count along the entry.
UniProt Q16288, residues 32-839: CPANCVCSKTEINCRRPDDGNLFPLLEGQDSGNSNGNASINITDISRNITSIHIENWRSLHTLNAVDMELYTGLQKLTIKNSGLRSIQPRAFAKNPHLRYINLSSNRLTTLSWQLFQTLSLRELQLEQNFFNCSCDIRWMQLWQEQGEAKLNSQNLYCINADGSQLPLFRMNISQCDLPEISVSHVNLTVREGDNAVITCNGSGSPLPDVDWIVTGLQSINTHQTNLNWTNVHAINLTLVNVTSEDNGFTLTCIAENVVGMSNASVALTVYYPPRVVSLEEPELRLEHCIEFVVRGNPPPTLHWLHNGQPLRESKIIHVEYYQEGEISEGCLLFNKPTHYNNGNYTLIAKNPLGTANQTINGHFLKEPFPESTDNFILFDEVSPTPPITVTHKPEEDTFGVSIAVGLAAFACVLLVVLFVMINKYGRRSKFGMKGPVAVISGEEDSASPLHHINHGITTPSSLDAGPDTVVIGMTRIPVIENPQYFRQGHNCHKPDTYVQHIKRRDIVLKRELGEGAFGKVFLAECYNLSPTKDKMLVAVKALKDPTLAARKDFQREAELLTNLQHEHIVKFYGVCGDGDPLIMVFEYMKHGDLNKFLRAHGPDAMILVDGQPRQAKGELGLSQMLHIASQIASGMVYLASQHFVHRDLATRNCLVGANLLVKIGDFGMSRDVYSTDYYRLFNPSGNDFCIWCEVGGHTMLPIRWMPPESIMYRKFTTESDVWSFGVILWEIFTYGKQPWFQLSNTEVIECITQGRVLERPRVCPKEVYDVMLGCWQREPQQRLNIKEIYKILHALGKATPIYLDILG
UniProt P07237, residues 18-508: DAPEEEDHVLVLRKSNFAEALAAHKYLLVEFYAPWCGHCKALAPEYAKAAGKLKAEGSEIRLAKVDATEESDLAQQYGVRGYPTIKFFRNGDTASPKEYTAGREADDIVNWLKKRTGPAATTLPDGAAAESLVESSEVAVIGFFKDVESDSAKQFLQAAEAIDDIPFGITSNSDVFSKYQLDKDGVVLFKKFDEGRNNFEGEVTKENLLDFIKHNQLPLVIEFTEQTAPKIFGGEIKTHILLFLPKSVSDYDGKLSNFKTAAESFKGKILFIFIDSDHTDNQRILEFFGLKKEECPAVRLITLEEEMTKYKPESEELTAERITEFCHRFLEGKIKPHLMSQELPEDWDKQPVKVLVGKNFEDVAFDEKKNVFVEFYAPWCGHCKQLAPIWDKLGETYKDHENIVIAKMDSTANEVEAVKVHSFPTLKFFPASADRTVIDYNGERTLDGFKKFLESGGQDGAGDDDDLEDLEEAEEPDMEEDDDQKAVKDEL

Target: full-length TrkC (TrkC-FL) (UniProt Q16288)
Assay: co-IP; HEK293 lysates expressing TrkC.T1, TrkC-FL or TrkC-Δ-ICD; immunoprecipitated with a pan-TrkC antibody; reducing and non-reducing SDS-PAGE; blotted with two anti-PDI mAbs or anti-pan-TrkC

binding: binds
Substance: Protein Disulfide Isomerase (PDI) (from UniProt P07237 18-508) (enzyme)
